# Test results from article PMC10928576 (Aging Cell, 2023).
# Some peptides are written in HELM: one residue between dots, names in brackets for other building blocks, links after the first $.
# Assay: peptide made by a vendor (Fmoc solid-phase peptide synthesis)
# Conditions: whole synthesis, high-performance liquid chromatography
substance,measurement,value
PEPTIDE1{K.Y.K.Q.K.R.R.S.Y.K}$$$$V2.0,purity (crude or final not stated),greater than 97%
